# Reference: publication PMC7819943, “Rice protein-binding microarrays: a tool to detect cis-acting elements near promoter regions in rice”
# The chains behind the UniProt entries cited, without tags or fusion partners.
# UniProt Q0JBA9, entry or part of it: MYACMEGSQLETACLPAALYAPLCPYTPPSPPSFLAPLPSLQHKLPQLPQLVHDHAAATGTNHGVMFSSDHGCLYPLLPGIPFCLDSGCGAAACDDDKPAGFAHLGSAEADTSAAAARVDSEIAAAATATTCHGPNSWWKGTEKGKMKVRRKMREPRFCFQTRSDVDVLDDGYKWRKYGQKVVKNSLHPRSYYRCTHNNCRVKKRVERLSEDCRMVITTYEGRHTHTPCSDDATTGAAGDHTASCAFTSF
# Some of the results follow.
# Biological target: OsWRKY34 (Oryza sativa, UniProt Q0JBA9 1-250)
# Assay: protein-binding microarray (RPBM); PBS, 2% BSA, 51.3 ng/ul salmon testes DNA, 50 uM zinc acetate, 200 nM TF, 25 C, 1 h; high values mean tight binding
# Settings: protein: recombinant; tags: N-terminal polyhistidine and DsRed monomer fusion (pET32a); label: CyDye5-dUTP incorporated in the synthesized complementary strand; 3' TTTTT single-stranded linker to array surface; dsDNA, one strand shown
# In short: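 Ni–NTA purification followed expression in E. coli BL21-CodonPlus of transcription factors fused N-terminally to a polyhistidine tag and DsRed. At 200 nM in PBS with 2% BSA, salmon testes DNA and 50 µM zinc acetate, the protein was incubated for 1 h at 25 °C with a custom Agilent array that had been primer-extended with Cy5-dUTP and blocked with 2% BSA. After washing, the array was read on an Axon 4000B scanner. The binding signal is per-feature fluorescence intensity in arbitrary units.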
row,Sequence,binding signal
1,AGTTTCTACAGTTGTAATGTATCAGTAGTCTCGACTTTCTCGGAGTCACCTAGTGCAG,13000 fluorescence intensity (a.u.)
2,CGCATCATTCACCGCATTTGCCAGTATCTCACCTGGCAATCGGAGTCACCTAGTGCAG,8660 fluorescence intensity (a.u.)
3,CTCTTGCCCGTCCATTGCCCACCACCACCACCCTGCTCTCCGGAGTCACCTAGTGCAG,9860 fluorescence intensity (a.u.)
4,CACCAACCGATTTCGCAGCGCCAGCCCACTGATTCCTCACCGGAGTCACCTAGTGCAG,8090 fluorescence intensity (a.u.)
5,GCCTAACCCTAACCCTAGCCGCCACCGCTCAACCGCCTCCCGGAGTCACCTAGTGCAG,8590 fluorescence intensity (a.u.)
6,CCACTTCAGCTGGTTAACCTTGGCCTTCCTCGACATCTTCCGGAGTCACCTAGTGCAG,10500 fluorescence intensity (a.u.)
7,AACCAAACGCTAGAAATCGCTCGTCACACATCAGTCCCGGCGGAGTCACCTAGTGCAG,8150 fluorescence intensity (a.u.)
8,CCGGAATACCTGGCCAATTTTACTGTCCTTTCCAGCTTGACGGAGTCACCTAGTGCAG,8380 fluorescence intensity (a.u.)
9,TTAAAATAGCATTTACCCGTTCCAATGCATAGACTTTTTTCGGAGTCACCTAGTGCAG,8540 fluorescence intensity (a.u.)
10,CGTGTCGAGCTCTGTCTCCTCGTCTTCATCCGCCGCTTCACGGAGTCACCTAGTGCAG,18100 fluorescence intensity (a.u.)
11,GGGATGTAAAGTTTTGGCGTGTCATATCGGGTATTATATACGGAGTCACCTAGTGCAG,9690 fluorescence intensity (a.u.)
12,AACGGTTCTTCTGGTCATTTCCAATTCGCCATCCGTCTGTCGGAGTCACCTAGTGCAG,8930 fluorescence intensity (a.u.)
13,TACTGTAATACCGTATGTATTTTTTTCTCATATATCTAGCCGGAGTCACCTAGTGCAG,8310 fluorescence intensity (a.u.)
14,CCTTTGTCTCGTCCTTTCTCACACACTTGCTGGTTATTAACGGAGTCACCTAGTGCAG,9540 fluorescence intensity (a.u.)
15,TGATTAGGTTGATGAGATAGGGGTGGTAAAGCATGTTTTTCGGAGTCACCTAGTGCAG,8070 fluorescence intensity (a.u.)
16,ATAATGTGATTGCCGGTGTTGTATCTATATCCGGAGGCTCCGGAGTCACCTAGTGCAG,9250 fluorescence intensity (a.u.)
17,GCGGGCGGACGGGCGAGGCGCGGGCGGGCTGGGAAGCGGCCGGAGTCACCTAGTGCAG,9250 fluorescence intensity (a.u.)
18,ACACCGTCTTCCTCGGCTTCGTCTACAACCACGCGCCGCCCGGAGTCACCTAGTGCAG,10700 fluorescence intensity (a.u.)
19,CAACGACTGCCGCAATCGCGTCACCATCATCGTCCTGCGCCGGAGTCACCTAGTGCAG,9100 fluorescence intensity (a.u.)
20,CTCTCACCACTATGTACACTTGATCGTCATTTGCCACAAGCGGAGTCACCTAGTGCAG,11300 fluorescence intensity (a.u.)
21,CTATATATGTGACGCTGACGTTCCTCATCTCCCAAGCTGCCGGAGTCACCTAGTGCAG,8480 fluorescence intensity (a.u.)

row,Sequence,binding signal
1,TCCAAGGTGAGATCTTTGCCTCTTGCATTTCTATTTTTCCCGGAGTCACCTAGTGCAG,8500 fluorescence intensity (a.u.)
2,TTTTTCTCGTCACACCTTTGTAAATCGTAAGTACTTGTCCCGGAGTCACCTAGTGCAG,9280 fluorescence intensity (a.u.)
3,CTCTGTGCCCAGTTGATCTCTTCTTCATTTGGTTTTCATACGGAGTCACCTAGTGCAG,10500 fluorescence intensity (a.u.)
4,CAGTTACATCCTATCCGCTGTCCATTATCATCCGGCGGTTCGGAGTCACCTAGTGCAG,8540 fluorescence intensity (a.u.)
5,TCTCCTCGCTCGTCGTCGTTGCCGGCAAACGCGCACTCAACGGAGTCACCTAGTGCAG,8890 fluorescence intensity (a.u.)
6,TTTTTCTCATCTCTTTCGTGTCATTTTAAATTTTACTTTTCGGAGTCACCTAGTGCAG,13900 fluorescence intensity (a.u.)
7,AACTGTGTGGTTGTCAAATGGCAATGCTGTTTTTTTTCTCCGGAGTCACCTAGTGCAG,8470 fluorescence intensity (a.u.)
8,GTTCTTGCTTCCTGTGGTAGCTTGTTTGTTGTTCTACTTACGGAGTCACCTAGTGCAG,12700 fluorescence intensity (a.u.)
9,GCACGTGTCTTCCCCTGTTGCGCGTCTCCCTCTCACGCCTCGGAGTCACCTAGTGCAG,9510 fluorescence intensity (a.u.)
10,GGAGCTGACGCCGCCGCCACCACCACCACCACGACGCCAACGGAGTCACCTAGTGCAG,11100 fluorescence intensity (a.u.)
11,TGCTGTAATTTTGTTCTTGAGCTGTAGCCTGTCTCTCCTGCGGAGTCACCTAGTGCAG,10800 fluorescence intensity (a.u.)
12,ATTCACCGCACAACACCACACTCGCGGACTCGCCCATATGCGGAGTCACCTAGTGCAG,9590 fluorescence intensity (a.u.)
13,AAGAAACGGGTGTGGTGTGAGGCGGGCAGTTTGGGTGGATCGGAGTCACCTAGTGCAG,8230 fluorescence intensity (a.u.)
14,TTCTTTTGCTCCGGCTTCTCAAACGTCTCCGCCTTGACCGCGGAGTCACCTAGTGCAG,8140 fluorescence intensity (a.u.)
15,GGATCTTTATGTCGTTTCTGGTGTTTCTTATATTTTATTTCGGAGTCACCTAGTGCAG,11400 fluorescence intensity (a.u.)
16,GCGCCCATCCCCTCCTGCTCCGCATCGACTCCATCACACGCGGAGTCACCTAGTGCAG,10100 fluorescence intensity (a.u.)
17,ATCCATCGGAAACCTCGATACCATATTTGTATTTCTATCCCGGAGTCACCTAGTGCAG,12000 fluorescence intensity (a.u.)
18,TCCACCACAATTAACGTGTATATTATTTTTCCTGTTTTCACGGAGTCACCTAGTGCAG,9370 fluorescence intensity (a.u.)
19,TGAATTTCGCTTATGTACATACGTTGCTTTTACCACTAAACGGAGTCACCTAGTGCAG,9500 fluorescence intensity (a.u.)
20,TGTGGAATTTTTTTCATTTTTAAATTTATCTTTTTTAACACGGAGTCACCTAGTGCAG,8380 fluorescence intensity (a.u.)
21,CCTTAGTATTGTCTTGGGCTGGGCCTTTGCTGTCGTCTGTCGGAGTCACCTAGTGCAG,11200 fluorescence intensity (a.u.)

# Part of the list above, set out differently.
row	Sequence	binding signal
17	ATCCATCGGAAACCTCGATACCATATTTGTATTTCTATCCCGGAGTCACCTAGTGCAG	12000 fluorescence intensity (a.u.)
18	TCCACCACAATTAACGTGTATATTATTTTTCCTGTTTTCACGGAGTCACCTAGTGCAG	9370 fluorescence intensity (a.u.)
19	TGAATTTCGCTTATGTACATACGTTGCTTTTACCACTAAACGGAGTCACCTAGTGCAG	9500 fluorescence intensity (a.u.)
